According to the supplement of paper PMC12067093, “Discovery and optimisation of a covalent ligand for TRIM25 and its application to targeted protein ubiquitination” (Chemical Science, 2025):
This is one part of the list.

By UniProt entry, the sequences of proteins in these tests, tags left out. Where a name states a change or a piece, a line headed by the entry shows the natural chain unless it says otherwise.
UniProt Q9NQ88: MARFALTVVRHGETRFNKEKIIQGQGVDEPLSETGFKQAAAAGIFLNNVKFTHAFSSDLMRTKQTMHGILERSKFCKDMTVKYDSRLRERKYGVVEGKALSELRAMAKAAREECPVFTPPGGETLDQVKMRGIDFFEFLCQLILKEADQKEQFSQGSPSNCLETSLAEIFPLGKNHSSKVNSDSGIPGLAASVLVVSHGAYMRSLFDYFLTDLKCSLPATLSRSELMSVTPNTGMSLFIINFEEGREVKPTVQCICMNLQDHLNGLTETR
UniProt Q9Y490: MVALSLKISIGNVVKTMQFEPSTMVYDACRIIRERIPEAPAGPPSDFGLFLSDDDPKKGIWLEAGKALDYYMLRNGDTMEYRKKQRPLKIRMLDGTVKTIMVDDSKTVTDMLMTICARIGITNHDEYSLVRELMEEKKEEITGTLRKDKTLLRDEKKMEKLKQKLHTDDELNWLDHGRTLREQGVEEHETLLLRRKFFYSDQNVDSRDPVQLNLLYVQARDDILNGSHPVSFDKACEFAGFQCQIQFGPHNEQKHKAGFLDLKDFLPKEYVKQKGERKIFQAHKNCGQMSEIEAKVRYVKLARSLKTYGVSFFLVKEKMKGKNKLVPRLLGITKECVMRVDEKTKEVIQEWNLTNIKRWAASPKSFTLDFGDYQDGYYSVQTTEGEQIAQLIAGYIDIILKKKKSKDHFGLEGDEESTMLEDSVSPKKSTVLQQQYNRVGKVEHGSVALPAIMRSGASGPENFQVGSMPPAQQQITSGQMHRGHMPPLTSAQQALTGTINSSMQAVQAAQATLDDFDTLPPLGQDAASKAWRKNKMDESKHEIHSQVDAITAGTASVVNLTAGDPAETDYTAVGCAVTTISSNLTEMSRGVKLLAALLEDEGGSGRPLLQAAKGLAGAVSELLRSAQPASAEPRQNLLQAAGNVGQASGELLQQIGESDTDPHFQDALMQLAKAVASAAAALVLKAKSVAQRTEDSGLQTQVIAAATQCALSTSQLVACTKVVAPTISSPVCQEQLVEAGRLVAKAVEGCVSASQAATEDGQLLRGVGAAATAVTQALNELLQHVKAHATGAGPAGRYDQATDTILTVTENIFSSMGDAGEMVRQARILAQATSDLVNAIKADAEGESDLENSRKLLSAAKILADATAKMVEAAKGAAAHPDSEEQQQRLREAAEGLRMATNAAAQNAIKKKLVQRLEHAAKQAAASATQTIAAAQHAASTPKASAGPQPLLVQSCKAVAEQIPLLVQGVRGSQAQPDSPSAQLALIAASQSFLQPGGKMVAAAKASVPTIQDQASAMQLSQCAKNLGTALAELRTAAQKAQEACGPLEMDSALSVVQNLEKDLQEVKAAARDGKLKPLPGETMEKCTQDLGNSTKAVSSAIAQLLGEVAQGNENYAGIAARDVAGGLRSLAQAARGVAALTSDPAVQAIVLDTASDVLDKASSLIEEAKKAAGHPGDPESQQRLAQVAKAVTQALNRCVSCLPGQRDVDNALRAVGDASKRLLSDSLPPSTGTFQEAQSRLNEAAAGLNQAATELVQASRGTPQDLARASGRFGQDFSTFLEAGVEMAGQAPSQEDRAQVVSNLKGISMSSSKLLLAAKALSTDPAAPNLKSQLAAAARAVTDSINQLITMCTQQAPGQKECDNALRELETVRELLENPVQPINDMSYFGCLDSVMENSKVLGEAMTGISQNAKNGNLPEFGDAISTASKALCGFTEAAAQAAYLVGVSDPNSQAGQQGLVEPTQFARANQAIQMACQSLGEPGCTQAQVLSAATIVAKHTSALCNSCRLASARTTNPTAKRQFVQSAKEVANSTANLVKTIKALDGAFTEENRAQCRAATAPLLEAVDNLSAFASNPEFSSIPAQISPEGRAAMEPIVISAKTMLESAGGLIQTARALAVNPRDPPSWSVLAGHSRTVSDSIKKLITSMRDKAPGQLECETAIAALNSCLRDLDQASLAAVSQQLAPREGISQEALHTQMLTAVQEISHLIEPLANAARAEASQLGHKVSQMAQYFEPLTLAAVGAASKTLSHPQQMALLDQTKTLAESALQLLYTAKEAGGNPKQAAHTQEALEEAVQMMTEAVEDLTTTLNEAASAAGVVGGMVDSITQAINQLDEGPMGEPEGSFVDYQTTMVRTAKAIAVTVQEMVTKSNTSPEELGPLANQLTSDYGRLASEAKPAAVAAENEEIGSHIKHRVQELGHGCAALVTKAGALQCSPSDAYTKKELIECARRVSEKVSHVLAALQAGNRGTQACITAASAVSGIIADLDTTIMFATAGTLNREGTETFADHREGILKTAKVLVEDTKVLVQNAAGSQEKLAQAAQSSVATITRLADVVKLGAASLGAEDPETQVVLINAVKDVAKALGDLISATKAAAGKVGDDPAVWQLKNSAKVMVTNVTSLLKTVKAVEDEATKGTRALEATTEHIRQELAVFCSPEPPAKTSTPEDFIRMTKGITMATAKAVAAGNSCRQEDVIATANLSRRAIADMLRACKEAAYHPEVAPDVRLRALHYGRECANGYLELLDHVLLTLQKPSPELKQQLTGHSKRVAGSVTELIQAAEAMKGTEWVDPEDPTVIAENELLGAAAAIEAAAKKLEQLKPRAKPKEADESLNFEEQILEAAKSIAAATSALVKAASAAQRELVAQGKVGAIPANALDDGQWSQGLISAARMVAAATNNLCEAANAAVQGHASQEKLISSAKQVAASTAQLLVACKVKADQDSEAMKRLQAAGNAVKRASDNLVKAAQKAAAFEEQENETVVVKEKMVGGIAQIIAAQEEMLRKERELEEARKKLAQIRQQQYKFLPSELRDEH
UniProt Q96BS2: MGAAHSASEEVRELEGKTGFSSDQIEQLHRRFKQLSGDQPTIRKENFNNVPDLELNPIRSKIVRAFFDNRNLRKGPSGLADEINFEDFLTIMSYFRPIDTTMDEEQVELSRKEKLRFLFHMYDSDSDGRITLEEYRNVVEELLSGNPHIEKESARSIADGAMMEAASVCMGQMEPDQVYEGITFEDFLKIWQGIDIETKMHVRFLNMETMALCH
UniProt Q9BSF4: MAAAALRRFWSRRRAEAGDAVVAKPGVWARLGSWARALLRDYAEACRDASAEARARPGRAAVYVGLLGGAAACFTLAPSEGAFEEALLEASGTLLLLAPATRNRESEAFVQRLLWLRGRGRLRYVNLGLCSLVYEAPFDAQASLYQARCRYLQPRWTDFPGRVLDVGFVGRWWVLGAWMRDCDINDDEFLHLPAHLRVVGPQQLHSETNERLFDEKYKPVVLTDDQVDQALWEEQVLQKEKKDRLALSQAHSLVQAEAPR
UniProt Q13769: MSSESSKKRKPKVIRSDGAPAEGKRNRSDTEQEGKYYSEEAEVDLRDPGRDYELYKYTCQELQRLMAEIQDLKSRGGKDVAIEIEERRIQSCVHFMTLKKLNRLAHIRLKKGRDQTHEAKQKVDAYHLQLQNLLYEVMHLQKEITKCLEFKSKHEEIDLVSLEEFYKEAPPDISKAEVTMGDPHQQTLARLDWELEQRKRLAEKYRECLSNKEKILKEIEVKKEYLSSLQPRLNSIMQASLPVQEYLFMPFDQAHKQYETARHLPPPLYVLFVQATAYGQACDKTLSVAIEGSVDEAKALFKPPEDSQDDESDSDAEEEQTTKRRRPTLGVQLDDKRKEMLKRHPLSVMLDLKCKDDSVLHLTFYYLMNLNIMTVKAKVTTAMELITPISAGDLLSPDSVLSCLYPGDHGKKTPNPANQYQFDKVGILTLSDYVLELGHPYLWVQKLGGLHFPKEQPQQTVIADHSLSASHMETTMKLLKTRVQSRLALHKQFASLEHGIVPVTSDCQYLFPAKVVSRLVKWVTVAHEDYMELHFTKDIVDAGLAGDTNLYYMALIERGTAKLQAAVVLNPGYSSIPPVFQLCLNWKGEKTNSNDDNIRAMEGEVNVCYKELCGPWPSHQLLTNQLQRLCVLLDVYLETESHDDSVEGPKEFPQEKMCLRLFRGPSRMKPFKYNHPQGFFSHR
UniProt P04183: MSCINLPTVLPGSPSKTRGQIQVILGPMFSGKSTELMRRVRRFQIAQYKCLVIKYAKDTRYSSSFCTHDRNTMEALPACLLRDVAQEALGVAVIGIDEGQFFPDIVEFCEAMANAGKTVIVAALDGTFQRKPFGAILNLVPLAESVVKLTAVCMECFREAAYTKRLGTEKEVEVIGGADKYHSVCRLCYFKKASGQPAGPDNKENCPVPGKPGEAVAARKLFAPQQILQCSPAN
UniProt P29401: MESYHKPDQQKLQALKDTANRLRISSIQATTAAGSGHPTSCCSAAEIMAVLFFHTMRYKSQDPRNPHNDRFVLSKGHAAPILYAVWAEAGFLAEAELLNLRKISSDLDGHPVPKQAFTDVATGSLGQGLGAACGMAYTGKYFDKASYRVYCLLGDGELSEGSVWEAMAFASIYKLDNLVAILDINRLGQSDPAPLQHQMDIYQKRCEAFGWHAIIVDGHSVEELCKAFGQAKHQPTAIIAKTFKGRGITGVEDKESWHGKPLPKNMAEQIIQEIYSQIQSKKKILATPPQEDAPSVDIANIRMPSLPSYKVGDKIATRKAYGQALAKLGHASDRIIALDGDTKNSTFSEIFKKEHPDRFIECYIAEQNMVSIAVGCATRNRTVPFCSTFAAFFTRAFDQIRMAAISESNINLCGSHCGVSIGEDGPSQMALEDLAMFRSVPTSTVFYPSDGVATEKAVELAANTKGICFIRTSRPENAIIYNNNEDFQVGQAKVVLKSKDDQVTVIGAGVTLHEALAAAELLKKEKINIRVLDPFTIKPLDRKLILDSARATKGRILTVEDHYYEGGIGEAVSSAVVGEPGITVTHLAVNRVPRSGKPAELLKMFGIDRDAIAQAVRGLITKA
UniProt P17987, whole entry, looked up: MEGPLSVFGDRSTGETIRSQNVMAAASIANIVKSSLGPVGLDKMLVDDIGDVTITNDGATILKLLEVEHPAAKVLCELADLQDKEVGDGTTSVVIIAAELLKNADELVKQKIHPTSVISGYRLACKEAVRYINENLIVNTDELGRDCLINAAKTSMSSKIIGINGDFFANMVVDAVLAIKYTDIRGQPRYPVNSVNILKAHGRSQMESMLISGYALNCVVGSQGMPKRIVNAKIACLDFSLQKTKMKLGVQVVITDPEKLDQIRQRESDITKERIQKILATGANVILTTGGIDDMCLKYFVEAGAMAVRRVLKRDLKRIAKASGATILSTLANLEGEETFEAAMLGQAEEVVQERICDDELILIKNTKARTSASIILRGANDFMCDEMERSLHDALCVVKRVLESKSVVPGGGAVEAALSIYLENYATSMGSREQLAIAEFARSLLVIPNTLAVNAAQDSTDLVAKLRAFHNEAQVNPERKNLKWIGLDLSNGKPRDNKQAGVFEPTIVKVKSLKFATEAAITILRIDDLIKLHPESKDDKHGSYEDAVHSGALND
UniProt P31483: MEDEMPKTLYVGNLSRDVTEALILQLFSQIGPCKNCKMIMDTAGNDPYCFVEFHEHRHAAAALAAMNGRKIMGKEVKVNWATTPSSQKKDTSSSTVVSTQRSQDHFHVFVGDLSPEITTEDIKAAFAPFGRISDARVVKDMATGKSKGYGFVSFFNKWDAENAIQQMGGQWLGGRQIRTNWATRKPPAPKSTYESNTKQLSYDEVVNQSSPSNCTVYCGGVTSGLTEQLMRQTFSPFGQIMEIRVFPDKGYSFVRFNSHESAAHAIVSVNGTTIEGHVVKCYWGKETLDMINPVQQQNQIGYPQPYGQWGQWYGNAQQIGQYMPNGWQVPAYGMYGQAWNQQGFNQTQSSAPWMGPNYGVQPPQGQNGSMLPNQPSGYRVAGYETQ
UniProt P52888, whole entry, looked up: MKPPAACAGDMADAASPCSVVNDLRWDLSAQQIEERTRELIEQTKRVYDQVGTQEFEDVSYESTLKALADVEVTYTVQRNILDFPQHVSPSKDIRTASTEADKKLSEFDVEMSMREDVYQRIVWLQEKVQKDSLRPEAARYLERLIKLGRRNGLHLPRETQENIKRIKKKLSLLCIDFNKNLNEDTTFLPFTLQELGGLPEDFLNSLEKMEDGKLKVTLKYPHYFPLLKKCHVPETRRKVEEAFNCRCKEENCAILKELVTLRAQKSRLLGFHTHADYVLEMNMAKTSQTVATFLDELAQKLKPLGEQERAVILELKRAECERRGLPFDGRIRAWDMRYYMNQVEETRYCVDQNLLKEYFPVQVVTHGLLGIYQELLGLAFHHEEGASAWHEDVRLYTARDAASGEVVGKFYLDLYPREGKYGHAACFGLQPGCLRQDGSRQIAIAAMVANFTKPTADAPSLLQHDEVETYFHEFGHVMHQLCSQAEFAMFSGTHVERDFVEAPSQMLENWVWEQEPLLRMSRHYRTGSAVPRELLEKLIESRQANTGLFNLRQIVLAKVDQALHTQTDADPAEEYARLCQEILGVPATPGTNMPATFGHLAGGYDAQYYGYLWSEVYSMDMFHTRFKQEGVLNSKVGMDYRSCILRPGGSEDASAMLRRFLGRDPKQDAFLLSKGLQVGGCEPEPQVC

Compound: Cc1cc(ccc1-c1ccccc1)C(=O)N1CCCN(CC1)C(=O)CCl [compound 10]
Assay: probe-labelled cysteine peptide fold change vs DMSO (competition) (log2 fold change); higher = less target engagement (more negative = stronger competition)
Details: THP-1, incubation time: 4 h
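Further: competitive profiling in live THP-1 cells: cysteine peptides tagged with an iodoacetamide desthiobiotin (IA-DTB) probe, intensity after compound treatment relative to DMSO-treated cells.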

Target | probe-labelled cysteine peptide fold change (10 µM) | probe-labelled cysteine peptide fold change (50 µM)
TET2_Q6N021_784_VEECFHGENQYSK (UniProt Q6N021) | -0.295 | -0.385
THAP12_O43422_644_SDLPNPDTLSAELHCWR (UniProt O43422) | 0.113 | -0.122
TIGAR_Q9NQ88_161_EQFSQGSPSNCLETSLAEIFPLGK (UniProt Q9NQ88) | -0.0701 | -0.804
TLN1_Q9Y490_1671_DKAPGQLECETAIAALNSCLR (UniProt Q9Y490) | -0.034 | -0.408
TKFC_Q3LXA3_155_GLCGTVLIHK (UniProt Q3LXA3) | 0.104 | -0.0404
TESC_Q96BS2_213_FLNMETMALCH (UniProt Q96BS2) | -0.431 | -1.46
THBS1_P07996_718_KDNCPNLPNSGQEDYDK (UniProt P07996) | -0.541 | -0.515
TIMM29_Q9BSF4_130_YVNLGLCSLVYEAPFDAQASLYQAR (UniProt Q9BSF4) | 0.167 | 0.332
TELO2_Q9Y4R8_30_EAIHALSSSEDGGHIFCTLESLK (UniProt Q9Y4R8) | -0.121 | -0.304
THOC5_Q13769_282_HLPPPLYVLFVQATAYGQACDK (UniProt Q13769) | 0.435 | 1.48
TK1_P04183_185_YHSVCR (UniProt P04183) | 0.0851 | -0.0422
TIMELESS_Q9UNS1_96_LMVNLTQPALLCFGNLPK (UniProt Q9UNS1) | 0.247 | -1.08
THOC3_Q96J01_306_LWEVQCESPTFTVAWHPK (UniProt Q96J01) | -0.0934 | -0.0798
TKT_P29401_133_QAFTDVATGSLGQGLGAACGMAYTGK (UniProt P29401) | -0.0496 | 0.0514
TK1_P04183_79_NTMEALPACLLR (UniProt P04183) | 0.13 | 0.0745
TCP1_P17987_218_SQMESMLISGYALNCVVGSQGMPK (UniProt P17987) | 0.131 | 0.0902
TIA1_P31483_49_MIMDTAGNDPYCFVEFHEHR (UniProt P31483) | 0.11 | 0.0754
TFIP11_Q9UBB9_383_VLEMVEECERR (UniProt Q9UBB9) | 0.00917 | -0.119
TCP1_P17987_147_YINENLIVNTDELGRDCLINAAK (UniProt P17987) | -0.0323 | -0.0166

A run of entries from further up, for reference:
Target | probe-labelled cysteine peptide fold change (10 µM) | probe-labelled cysteine peptide fold change (50 µM)
THAP12_O43422_644_SDLPNPDTLSAELHCWR (UniProt O43422) | 0.113 | -0.122
TIGAR_Q9NQ88_161_EQFSQGSPSNCLETSLAEIFPLGK (UniProt Q9NQ88) | -0.0701 | -0.804
TLN1_Q9Y490_1671_DKAPGQLECETAIAALNSCLR (UniProt Q9Y490) | -0.034 | -0.408
TKFC_Q3LXA3_155_GLCGTVLIHK (UniProt Q3LXA3) | 0.104 | -0.0404
TESC_Q96BS2_213_FLNMETMALCH (UniProt Q96BS2) | -0.431 | -1.46
THBS1_P07996_718_KDNCPNLPNSGQEDYDK (UniProt P07996) | -0.541 | -0.515
TIMM29_Q9BSF4_130_YVNLGLCSLVYEAPFDAQASLYQAR (UniProt Q9BSF4) | 0.167 | 0.332
TELO2_Q9Y4R8_30_EAIHALSSSEDGGHIFCTLESLK (UniProt Q9Y4R8) | -0.121 | -0.304
THOC5_Q13769_282_HLPPPLYVLFVQATAYGQACDK (UniProt Q13769) | 0.435 | 1.48
TK1_P04183_185_YHSVCR (UniProt P04183) | 0.0851 | -0.0422

The results go on:

Target | probe-labelled cysteine peptide fold change (10 µM) | probe-labelled cysteine peptide fold change (50 µM)
TEC_P42680_625_TIDELVECEETFGR (UniProt P42680) | -0.192 | -0.313
THOC2_Q8NI27_743_DALLDHDLALPLCLLMAQQR (UniProt Q8NI27) | 0.093 | 0.0571
TEP1_Q99973_2105_TPVLIHSFPACHR (UniProt Q99973) | -0.0307 | -0.291
TFCP2_Q12800_395_LTIYVCQESLQLR (UniProt Q12800) | 0.279 | 0.303
THOP1_P52888_434_YGHAACFGLQPGCLR (UniProt P52888) | 0.0705 | 0.0869
TKFC_Q3LXA3_13+24_KLVNSVAGCADDALAGLVACNPNLQLLQGHR (UniProt Q3LXA3) | -0.303 | -0.32
TELO2_Q9Y4R8_367_AVLICLAQLGEPELR (UniProt Q9Y4R8) | -0.267 | 0.0442
TCP1_P17987_385_GANDFMCDEMER (UniProt P17987) | -0.157 | 0.0013
THUMPD3_Q9BV44_391_PSWGLPIDAVQWDICNLPLR (UniProt Q9BV44) | -0.265 | -0.178
THBS1_P07996_171_AQLYIDCEK (UniProt P07996) | -0.252 | -0.258
TGFBR1_P36897_347_NGTCCIADLGLAVR (UniProt P36897) | -0.145 | -0.181
THOP1_P52888_321_RAECER (UniProt P52888) | 0.105 | 0.0687
THOC1_Q96FV9_396_NEGCPSFVK (UniProt Q96FV9) | -0.137 | -0.0773
THY1_P04216_28_VTSLTACLVDQSLR (UniProt P04216) | -0.159 | 0.239
TDRD7_Q8NHU6_284_EDLNQGILQQFEHWPHICTVEK (UniProt Q8NHU6) | 0.12 | 0.321
THBS1_P07996_718_DNCPNLPNSGQEDYDK (UniProt P07996) | -0.319 | -0.0541
TKT_P29401_206_CEAFGWHAIIVDGHSVEELCK (UniProt P29401) | 0.148 | 0.104
TEP1_Q99973_2275_EADDTCIPR (UniProt Q99973) | -0.137 | -0.236
TLN1_Q9Y490_1927_HRVQELGHGCAALVTK (UniProt Q9Y490) | -0.0503 | -0.0904
